According to the supplement of paper PMC10849652:
This is one part of the list.

Chains of the proteins cited; added tags and fusions are not shown. Lines headed by an entry give the natural chain unless they say otherwise; changes in a name come on top.
UniProt Q9NX47: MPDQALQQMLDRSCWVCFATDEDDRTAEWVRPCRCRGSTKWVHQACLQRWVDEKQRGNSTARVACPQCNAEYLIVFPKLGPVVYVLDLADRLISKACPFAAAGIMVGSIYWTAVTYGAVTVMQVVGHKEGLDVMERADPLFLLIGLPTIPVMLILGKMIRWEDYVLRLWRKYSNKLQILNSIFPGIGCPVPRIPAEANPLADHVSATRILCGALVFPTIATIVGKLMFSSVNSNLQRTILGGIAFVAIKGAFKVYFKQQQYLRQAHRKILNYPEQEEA
UniProt O00754: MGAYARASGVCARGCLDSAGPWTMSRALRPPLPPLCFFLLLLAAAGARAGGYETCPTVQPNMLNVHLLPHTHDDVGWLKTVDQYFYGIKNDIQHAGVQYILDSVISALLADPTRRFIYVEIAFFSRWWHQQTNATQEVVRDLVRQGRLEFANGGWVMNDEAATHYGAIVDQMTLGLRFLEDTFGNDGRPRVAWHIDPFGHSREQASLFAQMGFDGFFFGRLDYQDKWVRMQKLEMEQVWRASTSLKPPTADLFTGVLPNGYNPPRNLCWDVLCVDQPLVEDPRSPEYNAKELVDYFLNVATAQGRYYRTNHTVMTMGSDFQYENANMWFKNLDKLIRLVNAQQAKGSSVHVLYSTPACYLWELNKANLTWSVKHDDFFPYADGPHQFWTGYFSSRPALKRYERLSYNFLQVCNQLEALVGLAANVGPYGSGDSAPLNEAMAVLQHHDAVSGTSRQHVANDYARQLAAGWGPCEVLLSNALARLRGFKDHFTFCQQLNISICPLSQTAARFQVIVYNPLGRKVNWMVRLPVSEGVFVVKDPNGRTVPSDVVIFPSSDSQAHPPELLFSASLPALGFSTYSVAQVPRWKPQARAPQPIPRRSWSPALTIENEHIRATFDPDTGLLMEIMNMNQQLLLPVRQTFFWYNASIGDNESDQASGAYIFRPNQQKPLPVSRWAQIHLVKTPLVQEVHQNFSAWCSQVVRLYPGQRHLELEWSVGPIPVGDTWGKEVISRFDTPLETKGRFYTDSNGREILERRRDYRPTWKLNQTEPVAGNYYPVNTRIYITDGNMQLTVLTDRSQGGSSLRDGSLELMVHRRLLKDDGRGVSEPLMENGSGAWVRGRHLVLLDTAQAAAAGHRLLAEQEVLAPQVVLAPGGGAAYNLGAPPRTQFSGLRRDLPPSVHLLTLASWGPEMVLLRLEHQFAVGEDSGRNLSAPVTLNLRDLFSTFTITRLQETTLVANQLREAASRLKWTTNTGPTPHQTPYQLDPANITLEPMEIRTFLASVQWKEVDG
UniProt P56192: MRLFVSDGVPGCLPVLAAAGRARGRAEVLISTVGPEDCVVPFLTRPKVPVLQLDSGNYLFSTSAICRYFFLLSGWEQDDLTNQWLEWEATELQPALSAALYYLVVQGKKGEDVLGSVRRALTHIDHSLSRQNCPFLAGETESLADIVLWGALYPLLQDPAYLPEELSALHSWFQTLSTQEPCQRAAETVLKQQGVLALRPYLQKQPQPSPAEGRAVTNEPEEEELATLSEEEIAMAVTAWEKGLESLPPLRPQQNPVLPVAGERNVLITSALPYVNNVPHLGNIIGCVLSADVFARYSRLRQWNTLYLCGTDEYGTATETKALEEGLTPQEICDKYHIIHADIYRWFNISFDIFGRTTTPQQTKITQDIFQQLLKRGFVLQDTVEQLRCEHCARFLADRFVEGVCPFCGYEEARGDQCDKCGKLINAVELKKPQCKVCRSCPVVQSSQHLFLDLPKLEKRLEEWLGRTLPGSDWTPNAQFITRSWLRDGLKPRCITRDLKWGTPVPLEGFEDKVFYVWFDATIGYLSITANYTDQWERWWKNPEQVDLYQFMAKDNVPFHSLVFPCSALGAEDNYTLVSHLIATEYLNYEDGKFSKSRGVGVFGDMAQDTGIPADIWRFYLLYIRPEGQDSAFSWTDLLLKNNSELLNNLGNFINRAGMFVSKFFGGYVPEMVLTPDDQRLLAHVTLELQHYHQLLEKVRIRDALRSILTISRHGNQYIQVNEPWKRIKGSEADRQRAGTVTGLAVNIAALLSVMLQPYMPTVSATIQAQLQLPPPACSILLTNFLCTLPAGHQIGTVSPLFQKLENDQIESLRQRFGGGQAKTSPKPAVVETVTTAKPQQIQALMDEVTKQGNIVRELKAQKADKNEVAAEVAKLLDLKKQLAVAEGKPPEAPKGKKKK
UniProt Q14244: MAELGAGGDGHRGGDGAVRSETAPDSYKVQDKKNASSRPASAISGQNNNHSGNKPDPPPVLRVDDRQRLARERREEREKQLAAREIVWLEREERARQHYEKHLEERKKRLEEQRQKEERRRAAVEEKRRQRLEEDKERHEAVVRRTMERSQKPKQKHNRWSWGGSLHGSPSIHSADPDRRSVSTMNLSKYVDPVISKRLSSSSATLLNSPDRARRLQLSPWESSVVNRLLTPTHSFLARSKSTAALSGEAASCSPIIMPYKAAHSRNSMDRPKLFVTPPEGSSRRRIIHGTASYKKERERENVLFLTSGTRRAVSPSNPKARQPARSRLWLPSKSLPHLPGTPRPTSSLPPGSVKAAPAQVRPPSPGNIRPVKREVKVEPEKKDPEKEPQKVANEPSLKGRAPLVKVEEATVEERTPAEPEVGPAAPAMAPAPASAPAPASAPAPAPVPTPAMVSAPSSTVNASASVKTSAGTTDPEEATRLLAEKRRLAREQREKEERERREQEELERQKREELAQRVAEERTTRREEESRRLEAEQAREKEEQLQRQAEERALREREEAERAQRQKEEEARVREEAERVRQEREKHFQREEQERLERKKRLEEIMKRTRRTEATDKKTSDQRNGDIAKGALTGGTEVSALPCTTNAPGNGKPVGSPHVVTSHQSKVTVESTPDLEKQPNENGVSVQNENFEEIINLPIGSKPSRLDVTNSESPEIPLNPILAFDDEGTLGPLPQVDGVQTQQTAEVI
UniProt P55145: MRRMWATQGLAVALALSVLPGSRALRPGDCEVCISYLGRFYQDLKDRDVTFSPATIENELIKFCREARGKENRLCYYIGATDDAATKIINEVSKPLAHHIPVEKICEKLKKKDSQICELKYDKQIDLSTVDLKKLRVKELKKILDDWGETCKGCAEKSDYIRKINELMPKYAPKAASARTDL
UniProt Q9UNF1: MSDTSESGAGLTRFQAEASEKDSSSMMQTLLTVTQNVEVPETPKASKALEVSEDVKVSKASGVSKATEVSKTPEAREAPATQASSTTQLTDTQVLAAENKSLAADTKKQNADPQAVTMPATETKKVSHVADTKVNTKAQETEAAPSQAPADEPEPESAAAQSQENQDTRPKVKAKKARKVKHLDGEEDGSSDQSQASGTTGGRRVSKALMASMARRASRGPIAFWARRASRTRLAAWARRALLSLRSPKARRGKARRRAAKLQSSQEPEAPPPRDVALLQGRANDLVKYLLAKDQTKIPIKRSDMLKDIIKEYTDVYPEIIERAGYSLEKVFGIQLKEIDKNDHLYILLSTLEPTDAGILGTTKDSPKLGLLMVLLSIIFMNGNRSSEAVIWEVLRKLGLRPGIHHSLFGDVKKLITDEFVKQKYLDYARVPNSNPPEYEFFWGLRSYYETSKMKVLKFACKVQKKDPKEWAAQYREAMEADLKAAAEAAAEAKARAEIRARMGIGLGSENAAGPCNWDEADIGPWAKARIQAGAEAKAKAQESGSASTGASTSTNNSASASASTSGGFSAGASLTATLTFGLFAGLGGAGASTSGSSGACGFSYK
UniProt Q7L5Y9: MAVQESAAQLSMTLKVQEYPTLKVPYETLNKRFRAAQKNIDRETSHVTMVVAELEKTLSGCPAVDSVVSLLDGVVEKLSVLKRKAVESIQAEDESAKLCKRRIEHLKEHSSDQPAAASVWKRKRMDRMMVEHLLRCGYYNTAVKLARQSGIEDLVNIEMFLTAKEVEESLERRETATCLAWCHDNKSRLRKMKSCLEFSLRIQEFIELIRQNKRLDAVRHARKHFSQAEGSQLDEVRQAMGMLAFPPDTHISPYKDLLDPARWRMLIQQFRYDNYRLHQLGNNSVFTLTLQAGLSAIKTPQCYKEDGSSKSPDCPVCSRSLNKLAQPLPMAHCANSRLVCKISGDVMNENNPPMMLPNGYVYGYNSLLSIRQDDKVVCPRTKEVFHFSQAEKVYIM
UniProt Q8IV50: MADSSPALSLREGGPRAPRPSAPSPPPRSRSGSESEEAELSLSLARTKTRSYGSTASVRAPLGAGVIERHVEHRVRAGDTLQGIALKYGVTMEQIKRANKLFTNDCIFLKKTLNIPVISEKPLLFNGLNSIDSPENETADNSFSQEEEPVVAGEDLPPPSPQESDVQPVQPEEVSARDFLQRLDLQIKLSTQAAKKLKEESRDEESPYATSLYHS
UniProt P45985: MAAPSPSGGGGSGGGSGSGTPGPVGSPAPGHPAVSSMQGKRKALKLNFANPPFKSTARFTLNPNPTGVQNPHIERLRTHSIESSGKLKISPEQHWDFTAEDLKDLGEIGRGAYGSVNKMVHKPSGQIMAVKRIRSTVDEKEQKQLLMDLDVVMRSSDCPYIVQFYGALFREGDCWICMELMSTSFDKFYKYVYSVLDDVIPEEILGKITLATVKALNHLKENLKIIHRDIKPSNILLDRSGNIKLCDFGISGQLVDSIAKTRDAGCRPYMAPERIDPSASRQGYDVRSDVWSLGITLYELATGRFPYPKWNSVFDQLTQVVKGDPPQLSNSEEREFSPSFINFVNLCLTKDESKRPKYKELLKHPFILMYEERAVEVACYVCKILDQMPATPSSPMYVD
UniProt Q9UK45: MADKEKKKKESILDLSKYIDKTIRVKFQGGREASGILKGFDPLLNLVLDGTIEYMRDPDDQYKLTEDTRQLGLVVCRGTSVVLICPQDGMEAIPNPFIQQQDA
UniProt O60476: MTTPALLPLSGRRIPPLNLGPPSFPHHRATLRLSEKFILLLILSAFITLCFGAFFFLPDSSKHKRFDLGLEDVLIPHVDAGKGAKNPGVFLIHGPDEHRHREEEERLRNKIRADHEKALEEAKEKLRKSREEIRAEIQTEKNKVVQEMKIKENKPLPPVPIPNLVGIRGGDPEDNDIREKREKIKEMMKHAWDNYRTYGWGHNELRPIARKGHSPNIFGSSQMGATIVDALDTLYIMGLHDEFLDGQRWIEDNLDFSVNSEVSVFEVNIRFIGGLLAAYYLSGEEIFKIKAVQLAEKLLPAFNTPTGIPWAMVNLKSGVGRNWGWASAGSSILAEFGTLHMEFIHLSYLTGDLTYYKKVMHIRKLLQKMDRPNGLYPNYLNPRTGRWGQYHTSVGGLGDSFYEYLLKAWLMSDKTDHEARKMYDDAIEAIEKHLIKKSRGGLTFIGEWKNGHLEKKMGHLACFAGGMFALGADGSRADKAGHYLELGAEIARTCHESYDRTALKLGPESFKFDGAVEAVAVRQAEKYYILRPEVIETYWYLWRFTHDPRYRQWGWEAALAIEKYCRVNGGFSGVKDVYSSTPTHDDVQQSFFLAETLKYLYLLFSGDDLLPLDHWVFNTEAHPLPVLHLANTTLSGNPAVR
UniProt Q9BQ69: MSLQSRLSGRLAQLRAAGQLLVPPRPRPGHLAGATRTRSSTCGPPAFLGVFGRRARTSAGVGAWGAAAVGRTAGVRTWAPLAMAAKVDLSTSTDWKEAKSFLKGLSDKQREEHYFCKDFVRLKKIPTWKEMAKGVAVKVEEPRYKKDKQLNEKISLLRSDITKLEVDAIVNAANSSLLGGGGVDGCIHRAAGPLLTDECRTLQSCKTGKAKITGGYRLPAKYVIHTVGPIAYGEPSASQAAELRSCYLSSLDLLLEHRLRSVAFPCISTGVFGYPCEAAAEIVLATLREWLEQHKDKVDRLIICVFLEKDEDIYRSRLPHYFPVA
UniProt Q9HD34: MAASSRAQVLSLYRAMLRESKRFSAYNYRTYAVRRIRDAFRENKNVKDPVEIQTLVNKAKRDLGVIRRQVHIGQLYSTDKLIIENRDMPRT
UniProt Q8ND56: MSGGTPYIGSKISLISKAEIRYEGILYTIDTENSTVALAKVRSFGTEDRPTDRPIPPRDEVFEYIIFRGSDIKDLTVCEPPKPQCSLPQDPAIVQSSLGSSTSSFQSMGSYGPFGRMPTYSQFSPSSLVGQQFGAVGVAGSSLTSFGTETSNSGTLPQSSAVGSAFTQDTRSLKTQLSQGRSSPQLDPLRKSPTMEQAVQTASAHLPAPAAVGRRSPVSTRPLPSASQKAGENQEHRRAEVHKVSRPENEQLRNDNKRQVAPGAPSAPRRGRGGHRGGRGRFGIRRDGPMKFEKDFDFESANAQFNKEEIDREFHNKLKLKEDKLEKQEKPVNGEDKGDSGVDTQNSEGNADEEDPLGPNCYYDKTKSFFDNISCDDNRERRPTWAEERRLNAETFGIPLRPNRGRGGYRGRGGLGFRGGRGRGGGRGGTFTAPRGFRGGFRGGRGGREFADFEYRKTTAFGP

Tests used:
Assay in all cases: log2 fold change, soluble protein after heating vs DMSO (PISA); higher = thermal stabilisation; K562 cells, 10 uM, 30 min; active = over 0.2 and 3.5 SD of the protein, either way, in both replicates (recomputed)
[1] = compound: COC1=CC=C(C=C1)CN2C=CC3=C2C=C(C=C3)C(=O)NO
Method in brief: (§1)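 K562 cells at 2×10^6 cells/mL were given 10 μM compound for 30 min. Aliquots then went through 3 min of heating across 48°C-58°C, were pooled, and were extracted in PBS with 0.5% NP-40 at 4°C, and the supernatant after 21,000xg for 90 min was quantified by TMTpro 16plex LC-MS/MS with channel sums equalised. Thermal stability relative to control samples, from duplicates, is given as log2 fold change.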

[2] = compound: CON(C)C(=O)N1N=C(c2cc(F)ccc2F)S[C@@]1(CCCN)c1ccccc1 [filanesib]
Method in brief: as §1

[3] = compound: CO[C@H]1C[C@@H]2CC[C@@H](C)[C@@](O)(O2)C(=O)C(=O)N2CCCC[C@H]2C(=O)O[C@H]([C@H](C)C[C@@H]2CC[C@H](n3cnnn3)[C@H](OC)C2)CC(=O)[C@H](C)/C=C(\C)[C@@H](O)[C@@H](OC)C(=O)[C@H](C)C[C@H](C)/C=C/C=C/C=C/1C [zotarolimus]
Method in brief: as §1

[4] = compound: COc1cc(C(=O)O)ccc1NC(=O)[C@@H]1N[C@@H](CC(C)(C)C)[C@](C#N)(c2ccc(Cl)cc2F)[C@H]1c1cccc(Cl)c1F [idasanutlin]
Method in brief: as §1

[5] = compound: COc1cc(Nc2ncc3c(n2)-c2ccc(Cl)cc2C(c2c(F)cccc2OC)=NC3)ccc1C(=O)O [alisertib]
Method in brief: as §1

[6] = compound: COc1cc2nc(-c3cc(F)ccc3O)nc(N[C@@H]3CNC[C@H]3C(C)(C)O)c2cc1OC
Method in brief: as §1

[7] = compound: COc1cc2ncnc(Nc3ccc(F)c(Cl)c3)c2cc1OCCCN1CCOCC1 [gefitinib]
Method in brief: as §1

[8] = compound: COc1cccc2cc(-c3nc([C@H]4CC[C@H](C(=O)O)CC4)n4ncnc(N)c34)[nH]c12
Method in brief: as §1

[9] = compound: CS(=O)(=O)CCNCc1ccc(-c2ccc3ncnc(Nc4ccc(OCc5cccc(F)c5)c(Cl)c4)c3c2)o1 [lapatinib]
Method in brief: as §1

[10] = compound: CS(=O)(=O)N1CCN(Cc2cc3nc(-c4cccc5[nH]ncc45)nc(N4CCOCC4)c3s2)CC1 [pictilisib]
Method in brief: as §1

[11] = compound: CS(=O)(=O)c1ccc(-c2cnc(N)c(C(=O)Nc3ccccc3)n2)cc1
Method in brief: as §1

[12] = compound: C[C@@H](Oc1cc(-c2cnn(C3CCNCC3)c2)cnc1N)c1c(Cl)ccc(F)c1Cl [crizotinib]
Method in brief: as §1

[13] = compound: C[C@@H]1COCCN1C2=NC(=NC(=C2)C3(CC3)S(=O)(=O)C)C4=C5C=CNC5=CC=C4
Method in brief: as §1

[14] = compound: C[C@H](C1=CC=C(C=C1)C(=O)NC2=C3C=CNC3=NC=C2)N
Method in brief: as §1

[15] = compound: C[C@H](Nc1ncnc2nc[nH]c12)c1cc2cccc(Cl)c2c(=O)n1-c1ccccc1 [duvelisib]
Method in brief: as §1

[16] = compound: Cc1cc(Nc2cc(CN3CCOCC3)c3nc(C)c(Cc4ccc(Cl)cc4F)n3n2)n[nH]1 [gandotinib]
Method in brief: as §1

[17] = compound: Cc1cc(Nc2cc(N3CCN(C)CC3)nc(Sc3ccc(NC(=O)C4CC4)cc3)n2)n[nH]1 [tozasertib]
Method in brief: as §1

[18] = compound: Cc1cc(SCc2sc(-c3ccc(C(F)(F)F)cc3)nc2C)ccc1OCC(=O)O
Method in brief: as §1

[19] = compound: Cc1ccc(-n2nc(C(C)(C)C)cc2NC(=O)Nc2ccc(OCCN3CCOCC3)c3ccccc23)cc1 [doramapimod]
Method in brief: as §1

[20] = compound: Cc1ccc(C(=O)N(CCCN)[C@@H](c2nc3cc(Cl)ccc3c(=O)n2Cc2ccccc2)C(C)C)cc1 [ispinesib]
Method in brief: as §1

Measured: log2 fold change

MARCHF5 (UniProt Q9NX47)
inactive: [1] -0.053 | [2] 0.029 | [3] -0.004 | [4] -0.016 | [5] -0.015 | [6] -0.045 | [7] -0.027 | [8] 0.04 | [9] 0.038 | [10] 0.183 | [11] 0.019 | [12] 0.006 | [13] -0.064 | [14] -0.062 | [15] 0 | [16] 0.024 | [17] -0.013 | [18] -0.037 | [19] -0.015 | [20] 0.03

MAN2B1 (UniProt O00754)
inactive: [1] -0.044 | [2] -0.002 | [3] -0.013 | [4] -0.023 | [5] 0.04 | [6] -0.168 | [7] -0.022 | [8] 0.133 | [9] 0.004 | [10] 0.053 | [11] 0.015 | [12] 0.003 | [13] 0.056 | [14] -0.037 | [15] -0.007 | [16] 0.099 | [17] 0.008 | [18] -0.022 | [19] -0.02 | [20] 0.008

MARS (UniProt P56192)
inactive: [1] 0.004 | [2] 0.058 | [3] 0.04 | [4] -0.017 | [5] -0.089 | [6] -0.007 | [7] 0 | [8] -0.038 | [9] 0.009 | [10] -0.065 | [11] -0.01 | [12] -0.101 | [13] -0.039 | [14] 0.092 | [15] -0.018 | [16] -0.033 | [17] -0.036 | [18] 0.032 | [19] 0.057 | [20] -0.16

MAP7 isoform 7 (UniProt Q14244)
inactive: [1] -0.097 | [2] 0.29 | [3] 0.022 | [4] 0.093 | [5] -0.088 | [6] -0.007 | [7] 0.049 | [8] -0.214 | [9] 0.127 | [10] -0.084 | [11] -0.089 | [12] 0 | [13] -0.43 | [14] 0.356 | [15] -0.155 | [16] 0.121 | [17] 0.004 | [18] 0.024 | [19] 0.21 | [20] -0.199

MANF (UniProt P55145)
inactive: [1] -0.032 | [2] -0.057 | [3] -0.043 | [4] -0.012 | [5] -0.016 | [6] -0.017 | [7] 0.011 | [8] 0.019 | [9] -0.014 | [10] 0.017 | [11] -0.026 | [12] 0.084 | [13] 0.027 | [14] -0.077 | [15] -0.013 | [16] 0.015 | [17] -0.025 | [18] -0.03 | [19] -0.029 | [20] 0.001

LRRC8C (UniProt Q8TDW0)
inactive: [1] 0.081 | [2] 0.07 | [3] -0.05 | [4] 0.232 | [5] -0.128 | [6] -0.087 | [7] 0.061 | [8] -0.306 | [9] -0.02 | [10] -0.295 | [11] 0.044 | [12] 0.028 | [13] -0.216 | [14] 0.22 | [15] 0.008 | [16] 0.019 | [18] -0.143 | [19] 0.135 | [20] 0.033

MAGED2 (UniProt Q9UNF1)
inactive: [1] -0.061 | [2] -0.054 | [3] 0 | [4] -0.219 | [5] -0.189 | [6] 0.231 | [7] 0 | [8] 0.065 | [9] -0.007 | [10] 0.14 | [11] 0.049 | [12] -0.078 | [13] -0.02 | [14] 0.091 | [15] 0.005 | [16] -0.074 | [17] -0.035 | [18] -0.015 | [19] 0.123 | [20] -0.151

MAEA (UniProt Q7L5Y9)
inactive: [1] 0.013 | [2] 0.026 | [3] 0.03 | [4] -0.012 | [5] -0.102 | [6] -0.032 | [7] 0.065 | [8] 0.042 | [9] 0.065 | [10] 0.019 | [11] -0.038 | [12] 0.042 | [13] 0.019 | [14] 0.011 | [15] -0.051 | [16] 0.019 | [17] 0.094 | [18] 0.001 | [19] 0.044 | [20] -0.002

LYSMD2 (UniProt Q8IV50)
inactive: [1] -0.008 | [2] -0.048 | [3] -0.022 | [4] -0.022 | [5] -0.018 | [6] 0.051 | [7] 0.026 | [8] 0.009 | [9] -0.033 | [10] -0.034 | [11] -0.051 | [12] 0.063 | [13] 0.011 | [14] 0.018 | [15] 0.066 | [16] 0.048 | [17] 0.019 | [18] -0.009 | [19] -0.036 | [20] -0.004

MAP2K4 isoform 2 (UniProt P45985)
inactive: [1] 0.041 | [2] 0.026 | [3] -0.003 | [4] -0.027 | [5] 0.014 | [6] 0.012 | [7] 0.017 | [8] 0.017 | [9] -0.045 | [10] -0.115 | [11] -0.011 | [12] -0.068 | [13] 0.102 | [14] -0.049 | [15] 0.027 | [16] -0.007 | [17] 0 | [18] 0.021 | [19] -0.039 | [20] -0.006

LSM7 (UniProt Q9UK45)
inactive: [1] -0.059 | [2] 0.002 | [3] -0.009 | [4] -0.028 | [5] -0.099 | [6] 0.03 | [7] -0.007 | [8] 0.079 | [9] -0.032 | [10] -0.014 | [11] 0.034 | [12] 0.002 | [13] 0.025 | [14] -0.019 | [15] 0.088 | [16] 0.021 | [17] -0.053 | [18] -0.01 | [19] 0.024 | [20] -0.004

MAN1A2 (UniProt O60476)
inactive: [1] -0.019 | [2] -0.062 | [3] -0.078 | [4] -0.06 | [5] -0.191 | [6] -0.016 | [7] -0.003 | [8] 0.03 | [9] 0.041 | [10] 0.002 | [11] -0.01 | [12] 0.016 | [13] 0.044 | [14] 0.006 | [15] 0.017 | [16] -0.059 | [17] -0.012 | [18] 0.003 | [19] -0.026 | [20] -0.041

MACROD1 (UniProt Q9BQ69)
inactive: [1] 0.134 | [2] -0.012 | [3] 0 | [4] -0.118 | [5] 0.03 | [6] 0.082 | [7] 0.068 | [8] -0.069 | [9] -0.027 | [10] 0.182 | [11] 0.049 | [12] 0.133 | [13] 0.222 | [14] -0.013 | [15] -0.005 | [16] -0.182 | [17] 0.114 | [18] 0.092 | [19] -0.001 | [20] 0.065

LYRM4 (UniProt Q9HD34)
inactive: [1] 0.015 | [2] -0.069 | [3] 0.006 | [4] -0.058 | [5] -0.014 | [6] -0.002 | [7] -0.022 | [8] 0.008 | [9] -0.028 | [10] 0.026 | [11] -0.01 | [12] -0.015 | [13] -0.032 | [14] -0.015 | [15] 0.017 | [16] -0.071 | [17] -0.02 | [18] -0.009 | [19] 0.002 | [20] 0.043

LSM14A isoform 2 (UniProt Q8ND56)
inactive: [1] -0.06 | [2] 0.074 | [3] -0.025 | [4] -0.034 | [5] -0.045 | [6] 0.152 | [7] -0.034 | [8] -0.032 | [9] -0.067 | [10] 0.056 | [11] 0.027 | [12] 0.052 | [13] -0.044 | [14] -0.021 | [15] -0.047 | [16] -0.032 | [17] -0.054 | [18] 0.102 | [19] -0.019 | [20] -0.089

MALSU1 (UniProt Q96EH3)
inactive: [1] -0.025 | [2] 0.02 | [3] 0.014 | [4] 0.001 | [5] -0.043 | [6] -0.038 | [7] 0.011 | [8] 0.085 | [9] 0.017 | [10] 0.026 | [11] -0.026 | [12] -0.055 | [13] -0.008 | [14] -0.04 | [15] 0.08 | [16] -0.008 | [17] -0.002 | [18] 0.048 | [19] 0.098 | [20] 0.028
